The target in this experiment is biotinylated-His-GRP78 (UniProt P11021). In words: affinity purification with mass spectrometry; RAW264.7 cells treated with 40 nM biotinylated-His-GRP78 for 30 min, cross-linked with 2 mM DTSSP at room temperature, lysed; streptavidin-agarose 2 h at 4 C, eluted with 0.1 M glycine HCl pH 2.5; mass spectrometry; top eight of 191 proteins listed; only the target purified.

The chains behind the UniProt entries cited, without tags or fusion partners. Where a name states a change or a piece, a line headed by the entry shows the natural chain unless it says otherwise. Residues count along the entry.
UniProt P11021, residues 19-654: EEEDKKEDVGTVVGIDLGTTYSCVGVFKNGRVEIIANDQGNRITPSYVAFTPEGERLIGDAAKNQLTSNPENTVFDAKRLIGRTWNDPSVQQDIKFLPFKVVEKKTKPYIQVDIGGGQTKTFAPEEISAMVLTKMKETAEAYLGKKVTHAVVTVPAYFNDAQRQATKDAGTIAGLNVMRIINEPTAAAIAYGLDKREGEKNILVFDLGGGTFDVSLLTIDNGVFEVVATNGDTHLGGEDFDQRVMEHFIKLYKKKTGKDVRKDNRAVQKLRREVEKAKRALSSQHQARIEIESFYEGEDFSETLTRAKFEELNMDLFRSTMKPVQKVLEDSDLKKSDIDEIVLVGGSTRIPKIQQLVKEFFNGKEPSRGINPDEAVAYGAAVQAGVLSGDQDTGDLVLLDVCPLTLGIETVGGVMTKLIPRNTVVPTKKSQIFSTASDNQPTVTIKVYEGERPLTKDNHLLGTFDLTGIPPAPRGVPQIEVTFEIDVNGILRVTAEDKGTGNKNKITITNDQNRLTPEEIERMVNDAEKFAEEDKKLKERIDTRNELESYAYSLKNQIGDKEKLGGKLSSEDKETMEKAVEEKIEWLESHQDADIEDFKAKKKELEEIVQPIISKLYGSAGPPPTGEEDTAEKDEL
UniProt O70370: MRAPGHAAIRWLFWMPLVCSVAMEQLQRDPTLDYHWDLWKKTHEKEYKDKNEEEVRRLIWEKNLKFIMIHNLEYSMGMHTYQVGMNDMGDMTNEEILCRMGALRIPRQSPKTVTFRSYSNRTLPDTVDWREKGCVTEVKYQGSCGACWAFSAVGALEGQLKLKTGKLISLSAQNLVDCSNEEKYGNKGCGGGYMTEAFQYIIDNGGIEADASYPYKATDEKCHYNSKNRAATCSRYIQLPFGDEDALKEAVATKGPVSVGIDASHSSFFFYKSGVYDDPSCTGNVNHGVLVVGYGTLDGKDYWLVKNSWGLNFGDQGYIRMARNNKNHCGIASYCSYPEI
UniProt P17879: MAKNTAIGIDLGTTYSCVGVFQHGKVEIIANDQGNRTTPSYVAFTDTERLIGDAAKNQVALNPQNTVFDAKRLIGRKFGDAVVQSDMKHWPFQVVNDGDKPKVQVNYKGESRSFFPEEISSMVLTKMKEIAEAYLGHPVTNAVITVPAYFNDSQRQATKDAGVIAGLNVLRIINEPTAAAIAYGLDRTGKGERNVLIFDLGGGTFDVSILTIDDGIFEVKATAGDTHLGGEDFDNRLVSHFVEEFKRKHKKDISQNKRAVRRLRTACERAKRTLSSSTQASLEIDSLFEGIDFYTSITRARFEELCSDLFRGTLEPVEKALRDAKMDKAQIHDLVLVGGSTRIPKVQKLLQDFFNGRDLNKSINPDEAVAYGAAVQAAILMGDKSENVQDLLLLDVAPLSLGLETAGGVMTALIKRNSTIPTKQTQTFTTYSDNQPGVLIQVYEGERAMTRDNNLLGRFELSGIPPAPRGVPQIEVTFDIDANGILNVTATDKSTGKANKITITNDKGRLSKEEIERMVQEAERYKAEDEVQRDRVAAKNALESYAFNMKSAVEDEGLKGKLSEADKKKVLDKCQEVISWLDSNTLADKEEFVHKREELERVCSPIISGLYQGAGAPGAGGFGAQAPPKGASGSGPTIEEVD
UniProt Q9EQU5: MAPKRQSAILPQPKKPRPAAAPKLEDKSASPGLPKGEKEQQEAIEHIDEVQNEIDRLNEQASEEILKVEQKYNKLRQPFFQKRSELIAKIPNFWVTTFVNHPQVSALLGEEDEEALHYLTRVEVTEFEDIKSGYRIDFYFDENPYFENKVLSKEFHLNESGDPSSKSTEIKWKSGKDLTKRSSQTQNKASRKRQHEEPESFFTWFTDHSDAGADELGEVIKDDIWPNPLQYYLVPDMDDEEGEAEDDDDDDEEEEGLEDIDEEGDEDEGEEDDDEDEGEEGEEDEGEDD
UniProt P30051: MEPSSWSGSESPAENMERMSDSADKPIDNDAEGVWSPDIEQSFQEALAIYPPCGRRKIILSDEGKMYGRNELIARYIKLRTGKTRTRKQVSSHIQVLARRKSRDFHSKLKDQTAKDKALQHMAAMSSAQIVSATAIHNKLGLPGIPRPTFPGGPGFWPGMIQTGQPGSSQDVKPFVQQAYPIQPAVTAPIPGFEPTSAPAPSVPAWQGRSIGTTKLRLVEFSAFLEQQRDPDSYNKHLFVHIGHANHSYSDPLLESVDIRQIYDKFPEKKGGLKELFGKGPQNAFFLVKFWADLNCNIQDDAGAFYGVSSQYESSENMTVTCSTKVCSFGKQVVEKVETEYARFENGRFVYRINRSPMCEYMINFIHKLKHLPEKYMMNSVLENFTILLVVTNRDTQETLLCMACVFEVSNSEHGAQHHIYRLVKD

These are yes or no findings as the source states them, for the method shown. In cells and extracts the contact can be indirect. A yes stands for co-enrichment or nearness to the bait. Other partners may have been found.

For Ctss (from UniProt O70370), the binding entry is reported as “binds”.
With Hspa1b (from UniProt P17879 1-642) the entry was “binds”.
Next, Set (from UniProt Q9EQU5 1-289): “binds”; Tead1 (from UniProt P30051 1-426): “binds”.

B1: LAMP2 (protein, UniProt P17047 26-415)
chain: LIVNLTDSKGTCLYAEWEMNFTITYETTNQTNKTITIAVPDKATHDGSSCGDDRNSAKIMIQFGFAVSWAVNFTKEASHYSIHDIVLSYNTSDSTVFPGAVAKGVHTVKNPENFKVPLDVIFKCNSVLTYNLTPVVQKYWGIHLQAFVQNGTVSKNEQVCEEDQTPTTVAPIIHTTAPSTTTTLTPTSTPTPTPTPTPTVGNYSIRNGNTTCLLATMGLQLNITEEKVPFIFNINPATTNFTGSCQPQSAQLRLNNSQIKYLDFIFAVKNEKRFYLKEVNVYMYLANGSAFNISNKNLSFWDAPLGSSYMCNKEQVLSVSRAFQINTFNLKVQPFNVTKGQYSTAQDCSADEDNFLVPIAVGAALGGVLILVLLAYFIGLKRHHTGYEQF
B1: the binding result is given as “binds”.

For the origin of these results see PMC5884641.
